According to US6583179B2, “Substituted aminoalkylamide derivatives as antagonists of follicle stimulating hormone” (Ortho-McNeil Pharmaceutical, Inc., priority 1999, dated 2003):
For part of its entries the source gives two or more results. The list is limited to them. There may be further records. Results that share an entry read as repeated measurements on other runs, samples or individuals.

Sequences of proteins named here, by UniProt entry; tags and fusion partners are left off. Residues count along the entry.
UniProt P23945, 18-695 limits assumed: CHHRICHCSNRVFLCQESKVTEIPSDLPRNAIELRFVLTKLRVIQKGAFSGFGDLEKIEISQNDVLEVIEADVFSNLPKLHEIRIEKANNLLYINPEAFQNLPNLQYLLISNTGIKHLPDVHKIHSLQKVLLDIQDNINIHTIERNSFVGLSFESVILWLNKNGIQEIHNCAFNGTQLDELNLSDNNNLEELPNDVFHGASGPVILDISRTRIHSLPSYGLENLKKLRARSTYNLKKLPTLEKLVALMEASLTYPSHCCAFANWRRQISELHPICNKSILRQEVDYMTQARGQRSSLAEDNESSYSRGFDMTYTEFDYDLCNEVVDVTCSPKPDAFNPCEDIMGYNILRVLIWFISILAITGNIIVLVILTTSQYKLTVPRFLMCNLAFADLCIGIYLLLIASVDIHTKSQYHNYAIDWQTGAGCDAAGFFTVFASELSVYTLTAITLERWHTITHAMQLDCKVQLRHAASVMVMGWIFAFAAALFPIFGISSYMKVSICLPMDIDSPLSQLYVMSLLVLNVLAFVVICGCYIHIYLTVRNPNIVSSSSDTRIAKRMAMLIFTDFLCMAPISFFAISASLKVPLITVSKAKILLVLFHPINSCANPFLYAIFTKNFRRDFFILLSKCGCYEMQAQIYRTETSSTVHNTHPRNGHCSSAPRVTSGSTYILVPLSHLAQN

Target: human FSH receptor (Homo sapiens, UniProt P23945)
Assay: hFSHR CHO cAMP assay (rhFSHR-cLUC cells, FSH-stimulated cAMP, radioimmunoassay)
Conditions: read-out: EC50 hFSHR CHO cAMP; inhibition of cAMP produced by EC70 dose of FSH (4.85 nM); maximum concentration 50 μM
Text: Minimum Essential Medium-Alpha (MEM-alpha), fetal bovine serum (FBS), penicillin, streptomycin, geneticin, trypsin-EDTA, Hanks' Balanced Salt Solution (no Calcium chloride, Magnesium chloride, Magnesium sulfate, or phenol red; Ca-Mg free HBSS) were purchased from Gibco BRL (Gaithersburg, Md.). The cells used for the FSH bioassay (rhFSHR-cLUC) were Chinese Hamster Ovary cells (K-1; ATCC) stably transformed with human FSH receptor (pSVK-FSHr) and a cAMP luciferase reporter gene (responsive CGα-180LUC). Follicle Stimulating Hormone (Metrodin; Fertinex) was purchased from Serono, Ltd. (Norwell, Mass.).
The rhFSHR-cLUC cell cultures were maintained in MEM-Alpha supplemented with 10% heat-inactivated FBS (HIFBS), 100 U/ml penicillin, 100 μg/mL streptomycin, and included 0.1 g/L geneticin for stable cell selection.
Forty-eight hours after the cells were plated in sterile 96-well culture plates (Corning, Corning, N.Y.) the spent media was removed and 50 μl assay media (modified growth media with 2% HIFBS) containing 2 mM IBMX (3-isobutyl-1-methyl-xanthine) was added to the cells. […] The amount of cAMP produced was measured by radioimmunoassay in a FlashPlate (DuPont, Boston, Mass.). […] The FlashPlates were sealed, incubated overnight @ room temperature, and counted in a Packard TopCount (Packard Instrument Co., Meriden, Conn.). The cAMP radioimmunoassay results were calculated using DPM conversion and log-logit transformation of % binding (Excel program). […]
For individual experiments, a set of samples were tested including a vehicle control (assay buffer), a reference compound (hFSH) at a range of concentrations designed to elicit a minimal to maximal response, and several concentrations of test compounds together with an EC70 concentration of standard (hFSH challenge). […] The cAMP radioimmunoassay raw data (pmol) were calculated to provide average pmol cAMP produced/ml and the percent inhibition was calculated as shown below. […]
EC50 values were calculated from an analysis of the concentration-inhibition data using a linear analysis of the data transformed to a log-logit format.

EC50 | Compound
640 nM and 210 nM | C[C@@H](CN(CC(=O)NCc1ccc(CN)cc1)S(=O)(=O)c1ccc(-c2ccccc2C(F)(F)F)cc1)c1ccccc1 [420]
3.03 µM and 770 nM | C[C@@H](CN(CC(=O)NCc1ccc(CN)cc1)S(=O)(=O)c1ccc(-c2ccc(Cl)cc2Cl)cc1)c1ccccc1 [429]
2.14 µM and 580 nM | Cc1cc(C)c(-c2ccc(S(=O)(=O)N(CC(=O)NCc3ccc(CN)cc3)C[C@H](C)c3ccccc3)cc2)c(C)c1 [463]
